Data: US20170240864A1, “METHODS TO GENERATE PANCREATIC BETA CELLS FROM SKIN CELLS” (UNIVERSITY OF IOWA RESEARCH FOUNDATION, priority 2016, published 2017)
“Also recorded” adds a separate entry of the source. For at least one compound, name, drawing or mass did not settle the structure.

System: Human iPS cell-derived IPCs
Assay: Mitochondria stress test (oxygen consumption rate)
Type: cell-based
Settings: high glucose (20 mM)
Experimental: Oxygen consumption rate (OCR) was measured by using an intact-cell respirometer designed for adherent cells (Seahorse Bioscience, North Billerica, Mass.). Human iPS cell-derived IPCs were grown in special 24-well plates designed for respirometer analyses. OCR was determined in assay medium consisting of medium M199 lacking sodium bicarbonate for 60 minutes. Before analysis, IPCs within individual wells were exposed to either, low glucose (2.8 mM), high glucose (20 mM), high glucose (20 mM)+Nifedipine. […] The FCCP concentration used in these studies was determined by titration with differing amounts of the uncoupler by using the least amount required for maximal uncoupling in cells unexposed to MTQAs. OCR (pmol per minute per microgram of DNA) was determined as the average number recorded during time periods defined as intervals between the above sequential injections. Basal OCR was determined as respiration before injection of any compounds minus non-mitochondrial OCR. OCRATP was determined as basal OCR minus OCR after oligomycin injection. OCR accountable by the proton leak was calculated as OCR in the presence of oligomycin minus non-mitochondrial OCR. Maximal uncoupled respiration was calculated as OCR after FCCP minus non-mitochondrial OCR. […] ECAR was quantified simply as the recorded acidification rate during the respiratory conditions delineated above.

SMILES: COC(=O)C1=C(C)NC(C)=C(C(=O)OC)C1c1ccccc1[N+](=O)[O-] [Nifedipine]
- effect on oxygen consumption: could be blocked; also recorded: successfully inhibited oxygen consumption
